Test results taken from the supplement of paper PMC8728848.
Some of the results follow.

Tests used:
Test in all cases: glycan array binding signal (z-score within array); higher = stronger binding
Conditions in all cases: glycan notation: IUPAC condensed, linker removed
[1] = target: Neu5Ac(a2-3)Gal(b1-3)GalNAc(b1-4)[Neu5Ac(a2-8)Neu5Ac(a2-3)]Gal(b1-4)Glc
How it was run: (§1)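 Negative Z-scores can be read as non-binding. The Z-score is calculated within each array and then averaged across arrays of one protein sequence at different concentrations or buffers and across linkers. Arrays, 3228 in all, were curated from the Consortium for Functional Glycomics database and kept only where the protein sequence was available.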

[2] = target: Neu5Ac(a2-3)Gal(b1-3)GalNAc6S
How it was run: as §1

[3] = target: Neu5Ac(a2-3)Gal(b1-3)GlcNAc
How it was run: as §1

[4] = target: Neu5Ac(a2-3)Gal(b1-3)GlcNAc(b1-2)Man
How it was run: as §1

[5] = target: Neu5Ac(a2-3)Gal(b1-3)GlcNAc(b1-2)Man(a1-3)[GlcNAc(b1-4)][Neu5Ac(a2-3)Gal(b1-3)GlcNAc(b1-2)Man(a1-6)]Man(b1-4)GlcNAc(b1-4)GlcNAc
How it was run: as §1

[6] = target: Neu5Ac(a2-3)Gal(b1-3)GlcNAc(b1-2)Man(a1-3)[Neu5Ac(a2-3)Gal(b1-3)GlcNAc(b1-2)Man(a1-6)]Man(b1-4)GlcNAc(b1-4)GlcNAc
How it was run: as §1

[7] = target: Neu5Ac(a2-3)Gal(b1-3)GlcNAc(b1-2)[Neu5Ac(a2-3)Gal(b1-3)GlcNAc(b1-4)]Man(a1-6)[Neu5Ac(a2-3)Gal(b1-3)GlcNAc(b1-2)Man(a1-3)]Man(b1-4)GlcNAc(b1-4)GlcNAc
How it was run: as §1

[8] = target: Neu5Ac(a2-3)Gal(b1-3)GlcNAc(b1-3)Gal(b1-3)GlcNAc
How it was run: as §1

[9] = target: Neu5Ac(a2-3)Gal(b1-3)GlcNAc(b1-3)Gal(b1-4)GlcNAc
How it was run: as §1

[10] = target: Neu5Ac(a2-3)Gal(b1-3)GlcNAc(b1-3)GalNAc
How it was run: as §1

[11] = target: Neu5Ac(a2-3)Gal(b1-3)GlcNAc(b1-6)GalNAc
How it was run: as §1

[12] = target: Neu5Ac(a2-3)Gal(b1-3)GlcNAc6S
How it was run: as §1

[13] = target: Neu5Ac(a2-3)Gal(b1-3)[Fuc(a1-4)]GlcNAc
How it was run: as §1

[14] = target: Neu5Ac(a2-3)Gal(b1-3)[Fuc(a1-4)]GlcNAc(b1-3)Gal(b1-3)[Fuc(a1-4)]GlcNAc
How it was run: as §1

[15] = target: Neu5Ac(a2-3)Gal(b1-3)[Fuc(a1-4)]GlcNAc(b1-3)Gal(b1-4)[Fuc(a1-3)]GlcNAc
How it was run: as §1

[16] = target: Neu5Ac(a2-3)Gal(b1-3)[GlcNAc(b1-6)]GalNAc
How it was run: as §1

[17] = target: Neu5Ac(a2-3)Gal(b1-3)[Neu5Ac(a2-3)Gal(b1-4)]GlcNAc
How it was run: as §1

[18] = target: Neu5Ac(a2-3)Gal(b1-3)[Neu5Ac(a2-6)]GalNAc
How it was run: as §1

[19] = target: Neu5Ac(a2-3)Gal(b1-3)[Neu5Ac(a2-6)]GlcNAc(b1-3)[Fuc(a1-3)[Gal(b1-4)]GlcNAc(b1-6)]Gal(b1-4)Glc
How it was run: as §1

[20] = target: Neu5Ac(a2-3)Gal(b1-3)]Neu5Ac(a2-3)Gal(b1-4)]GlcNAc
How it was run: as §1

Neu5Ac(a2-3)Gal(b1-4)Glc = target: Neu5Ac(a2-3)Gal(b1-4)Glc
How it was run: as §1

[21] = target: Neu5Ac(a2-3)Gal(b1-4)GlcNAc
How it was run: as §1

B1: Endo180d1-D4 (Homo sapiens), Q9UBG0 (protein)
chain: MGPGRPAPAPWPRHLLRCVLLLGCLHLGRPGAPGDAALPEPNVFLIFSHGLQGCLEAQGGQVRVTPACNTSLPAQRWKWVSRNRLFNLGTMQCLGTGWPGTNTTASLGMYECDREALNLRWHCRTLGDQLSLLLGARTSNISKPGTLERGDQTRSGQWRIYGSEEDLCALPYHEVYTIQGNSHGKPCTIPFKYDNQWFHGCTSTGREDGHLWCATTQDYGKDERWGFCPIKSNDCETFWDKDQLTDSCYQFNFQSTLSWREAWASCEQQGADLLSITEIHEQTYINGLLTGYSSTLWIGLNDLDTSGGWQWSDNSPLKYLNWESDQPDNPSEENCGVIRTESSGGWQNRDCSIALPYVCKKKPNATAEPTPPDRWANVKVECEPSWQPFQGHCYRLQAEKRSWQESKKACLRGGGDLVSIHSMAELEFITKQIKQEVEELWIGLNDLKLQMNFEWSDGSLVSFTHWHPFEPNNFRDSLEDCVTIWGPEGRWNDSPCNQSLPSICKKAGQLSQGAAEEDHGCRKGWTWHSPSCYWLGEDQVTYSEARRLCTDHGSQLVTITNRFEQAFVSSLIYNWEGEYFWTALQDLNSTGSFFWLSGDEVMYTHWNRDQPGYSRGGCVALATGSAMGLWEVKNCTSFRARYICRQSLGTPVTPELPGPDPTPSLTGSCPQGWASDTKLRYCYKVFSSERLQDKKSWVQAQGACQELGAQLLSLASYEEEHFVANMLNKIFGESEPEIHEQHWFWIGLNRRDPRGGQSWRWSDGVGFSYHNFDRSRHDDDDIRGCAVLDLASLQWVAMQCDTQLDWICKIPRGTDVREPDDSPQGRREWLRFQEAEYKFFEHHSTWAQAQRICTWFQAELTSVHSQAELDFLSHNLQKFSRAQEQHWWIGLHTSESDGRFRWTDGSIINFISWAPGKPRPVGKDKKCVYMTASREDWGDQRCLTALPYICKRSNVTKETQPPDLPTTALGGCPSDWIQFLNKCFQVQGQEPQSRVKWSEAQFSCEQQEAQLVTITNPLEQAFITASLPNVTFDLWIGLHASQRDFQWVEQEPLMYANWAPGEPSGPSPAPSGNKPTSCAVVLHSPSAHFTGRWDDRSCTEETHGFICQKGTDPSLSPSPAALPPAPGTELSYLNGTFRLLQKPLRWHDALLLCESHNASLAYVPDPYTQAFLTQAARGLRTPLWIGLAGEEGSRRYSWVSEEPLNYVGWQDGEPQQPGGCTYVDVDGAWRTTSCDTKLQGAVCGVSSGPPPPRRISYHGSCPQGLADSAWIPFREHCYSFHMELLLGHKEARQRCQRAGGAVLSILDEMENVFVWEHLQSYEGQSRGAWLGMNFNPKGGTLVWQDNTAVNYSNWGPPGLGPSMLSHNSCYWIQSNSGLWRPGACTNITMGVVCKLPRAEQSSFSPSALPENPAALVVVLMAVLLLLALLTAALILYRRRQSIERGAFEGARYSRSSSSPTEATEKNILVSDMEMNEQQE
- glycan array binding signal (z-score) [1]: -1.04
- glycan array binding signal (z-score) [2]: 0.081
- glycan array binding signal (z-score) [3]: 0.541
- glycan array binding signal (z-score) [4]: -2.55
- glycan array binding signal (z-score) [5]: 0.536
- glycan array binding signal (z-score) [6]: 0.646
- glycan array binding signal (z-score) [7]: -0.652
- glycan array binding signal (z-score) [8]: -2.73
- glycan array binding signal (z-score) [9]: 0.579
- glycan array binding signal (z-score) [10]: -0.015
- glycan array binding signal (z-score) [11]: 0.64
- glycan array binding signal (z-score) [12]: -0.46
- glycan array binding signal (z-score) [13]: 0.151
- glycan array binding signal (z-score) [14]: -1.25
- glycan array binding signal (z-score) [15]: 0.222
- glycan array binding signal (z-score) [16]: -0.439
- glycan array binding signal (z-score) [17]: -0.174
- glycan array binding signal (z-score) [18]: -0.517
- glycan array binding signal (z-score) [19]: -0.16
- glycan array binding signal (z-score) [20]: -0.234
- glycan array binding signal (z-score) (Neu5Ac(a2-3)Gal(b1-4)Glc): 0.11
- glycan array binding signal (z-score) [21]: -0.314
